According to PubChem BioAssay AID493014 (National Center for Advancing Translational Sciences (NCATS), 2011):
The list shows a part of the results. The main result of the screen is listed elsewhere. These columns were measured beside it and carry no call. Compounds called inactive in the main read-out are mostly missing here. The note in brackets gives the kind of curve behind each potency; many fits are weak.

Assay: qHTS Assay to Find Inhibitors of Chronic Active B-Cell Receptor Signaling
Conditions: ABC-DLBCL IkBa-CBG/CBR reporter, luminescence ratio (green luciferase fused to IkBa over red control in TMD8 lymphoma cells), 4 h
In short: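 TMD8 human ABC-DLBCL cells with doxycycline-inducible IκBα–green luciferase fusion and unfused red luciferase, in 0.5% FBS medium; compounds up to 46 uM, 4 h at 37C. Green/red luminescence ratio, filter-overlap corrected, fitted to concentration-response curves.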

[1] = measured here: CBR red luminescence, cell number
[2] = measured here: IkBa-CBG green luminescence

Q: With `Clc1ccc(Nc2nc(-c3cccs3)cs2)nc1` as the compound, how does the AC50 [1] read?
A: 4.11 µM [falling, full curve]

Q: Which AC50 [1] does the source give for `COCCCNC(=S)N(Cc1cccnc1)Cc1ccc(OC)c(OC)c1` here?
A: 16.4 µM [rising, partial curve, poor fit]

Q: Which AC50 [1] does the source give for `O=C(Nc1cccnc1)c1cc(-c2ccc3c(c2)OCO3)on1` here?
A: 2.82 µM [falling, full curve]

Q: For `CN(CC#CC(O)(c1ccccc1)c1ccccc1)C(C)(C)C`, which AC50 [1] is on record?
A: 2.82 µM [falling, full curve, poor fit]

Q: Which AC50 [1] does the source give for `Nc1ccc(S(N)(=O)=O)cc1N` here?
A: 0.794 µM [rising, full curve]

Q: With `Cc1cccc2c1-c1sc(C(=O)Nc3cccnc3)cc1CO2` as the compound, how does the AC50 [1] read?
A: 10 µM [falling, partial curve, poor fit]

Q: For `O=c1[nH]c2cc3c(cc2cc1CN(CCc1ccccc1)Cc1nnnn1CC1CCCO1)OCO3` (centres undefined), which AC50 [1] is on record?
A: 0.231 µM [falling, full curve, poor fit]

Q: With `C/C(N)=C(/C#N)C(=O)CSc1cc(C)c2ccccc2n1` as the compound, how does the AC50 [1] read?
A: 2.82 µM [falling, full curve]

Q: With `CN1CCCNc2nc3ccccc3nc21` as the compound, how does the AC50 [1] read?
A: 7.08 µM [falling, partial curve, poor fit]

Q: With `CC(=O)c1ccc(N/C=C\C(=O)c2ccc(C)cc2)cc1` as the compound, how does the AC50 [1] read?
A: 3.16 µM [rising, full curve, poor fit]

Q: Which AC50 [2] does the source give for `COc1ccccc1C(=O)NC(=S)N1CCc2ccccc21` here?
A: 12.6 µM [falling, single point]

Q: Which AC50 [1] does the source give for `c1ccc(N2CCN(c3ncnc4[nH]ncc34)CC2)cc1` here?
A: 5.62 µM [rising, single point]

Q: For `CC1CCc2c(sc(NC(=O)c3ccco3)c2C(=O)O)C1` (centres undefined), which AC50 [1] is on record?
A: 0.398 µM [falling, full curve]

Q: For `COc1ccccc1N/C=C1/Sc2cc(Cl)ccc2NC1=O`, which AC50 [1] is on record?
A: 0.794 µM [falling, partial curve, poor fit]

Q: For `CCN(CC(=O)Nc1ccc(NC(C)=O)cc1)C(=O)COc1ccccc1-c1ccccc1`, which AC50 [1] is on record?
A: 29.1 µM [falling, single point]

Q: For `COc1ccccc1CN1CCN(C(CC(C)C)c2nnnn2Cc2cccs2)CC1` (centres undefined), which AC50 [1] is on record?
A: 16.4 µM [falling, partial curve, poor fit]

Q: For `c1ccc(N2CCN(C3CCSC3)CC2)cc1` (centres undefined), which AC50 [1] is on record?
A: 32.6 µM [rising, single point]

Q: For `CC(NC(=O)Nc1ccccc1O)(C(F)(F)F)C(F)(F)F`, which AC50 [1] is on record?
A: 3.26 µM [falling, partial curve]

Q: For `CCc1cc2c(=O)nc3n(c2s1)Cc1ccccc1/C3=C(/O)c1ccc(F)cc1`, which AC50 [1] is on record?
A: 29.1 µM [falling, single point]

Q: Which AC50 [1] does the source give for `COCCNC(=O)CN1CCC(NC(=O)c2ccco2)CC1` here?
A: 4.47 µM [falling, full curve, poor fit]

Q: With `CCN(CC)CCN(Cc1cc2cc(C)c(C)cc2[nH]c1=O)C(=S)NCc1ccco1` as the compound, how does the AC50 [1] read?
A: 5.01 µM [falling, partial curve]

Q: With `O=C1COc2ccc(S(=O)(=O)NCCc3ccccc3)cc2N1` as the compound, how does the AC50 [1] read?
A: 20 µM [rising, single point]

Q: With `CCOC(=O)c1cc(-c2ccc(OC)cc2)nn1-c1ccc(C(=O)O)cc1` as the compound, how does the AC50 [1] read?
A: 25.1 µM [falling, single point]

Q: Which AC50 [1] does the source give for `COc1cccc(NC(=O)c2ccccc2)c1` here?
A: 16.4 µM [falling, partial curve]

Q: Which AC50 [1] does the source give for `O=S(=O)(c1cccc(C(F)(F)F)c1)N1CCN(CC(O)COCc2ccccc2)CC1` (centres undefined) here?
A: 32.6 µM [falling, partial curve, poor fit]

Q: With `COc1cccc(C(=O)N2CCN(Cc3cn[nH]c3-c3ccc(F)cc3F)CC2)c1` as the compound, how does the AC50 [1] read?
A: 35.5 µM [falling, single point]

Q: Which results are given for `CCCCCc1ccc(CC(=O)Nn2c(C)nc3ccccc3c2=O)cc1`?
A: AC50 [1]: 32.6 µM [falling, single point]; AC50 [2]: 20.6 µM [rising, partial curve, poor fit]

Q: Which AC50 [1] does the source give for `COC(=O)c1cc(OC)c(OC)cc1NC(=O)c1cnccn1` here?
A: 14.6 µM [rising, partial curve, poor fit]

Q: For `C=CCN=C1NN=C(c2ccc3c(c2)OCCO3)CS1`, which AC50 [1] is on record?
A: 0.891 µM [rising, partial curve, poor fit]

Q: With `CCn1c(SCC(=O)Nc2cc(C)on2)nc2c1c(=O)n(C)c(=O)n2C` as the compound, how does the AC50 [1] read?
A: 29.1 µM [rising, single point]

Q: With `O=C(Nc1sc2c(c1C(=O)O)CCC2)c1ccccc1` as the compound, how does the AC50 [1] read?
A: 0.651 µM [falling, full curve, poor fit]

Q: For `CCCNc1c(NS(=O)(=O)c2ccc3c(c2)CCCC3)c(=O)oc2ccccc12`, which AC50 [1] is on record?
A: 15.8 µM [falling, partial curve]

Q: With `CCn1c(SCC(=O)NCCOC)nc2sc3c(c2c1=O)CCCC3` as the compound, how does the AC50 [1] read?
A: 0.398 µM [rising, full curve]

Q: With `Cn1c(Cl)nc2c1c(=O)n(Cc1cccc(Br)c1)c(=O)n2C` as the compound, how does the AC50 [1] read?
A: 1.16 µM [falling, full curve, poor fit]

Q: For `Cc1cc2ncn(C(=O)N3CCCCCC3)c2cc1C`, which AC50 [1] is on record?
A: 29.1 µM [rising, single point]

Q: Which AC50 [1] does the source give for `Cc1ccc(Nc2ccc([N+](=O)[O-])cn2)cc1Cl` here?
A: 14.1 µM [rising, partial curve]

Q: Which AC50 [1] does the source give for `CCCOc1ccccc1OCC(=O)Nc1cccc(S(=O)(=O)NC2=NCCC2)c1` here?
A: 14.6 µM [falling, partial curve]

Q: With `O=C(NCCc1ccccc1)c1cc2ncc(Br)cn2n1` as the compound, how does the AC50 [1] read?
A: 3.66 µM [rising, full curve, poor fit]

Q: With `CCOc1ccccc1NC(=O)CSc1nnnn1C1CCCC1` as the compound, how does the AC50 [1] read?
A: 14.1 µM [falling, partial curve]

Q: For `O=[N+]([O-])c1ccccc1N/N=C1\CCc2ccccc21`, which AC50 [1] is on record?
A: 35.5 µM [rising, partial curve, poor fit]

Q: For `COc1ccc(C(=O)NC(=S)N(Cc2ccccc2)Cc2ccccc2)cc1`, which AC50 [1] is on record?
A: 3.55 µM [rising, single point]

Q: For `CCc1ccccc1NC(=S)N1CCC(C(=O)c2ccc(F)cc2)CC1`, which AC50 [1] is on record?
A: 35.5 µM [falling, single point]

Q: With `CN(C)CCCn1c2c(c(SCC(=O)Nc3ccc4c(c3)OCCO4)nc1=O)CCC2` as the compound, how does the AC50 [1] read?
A: 29.1 µM [falling, single point]
